# Assay results reported in the supplement of paper PMC12009310.
# Counter-ions that a name gives are not always drawn. ± gives the standard deviation of the averaged measurements. The list shows a part of the results. Baselines shift from plate to plate; read single values as rough.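 The cells are a mouse kidney inner medullary collecting duct line, silenced either for the ciliary gene Rpgrip1l or with a non-targeting control siRNA.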
# Legend:
# mIMCD3 [1] = experiment: robust z score of cell number vs plate controls; higher = more cells (less cytotoxic); details: 10 µM, 48 h
# mIMCD3 [2] = experiment: robust z score of cilia incidence (% cells with single cilium) vs plate controls; higher = more ciliated cells; details: 10 µM; 48 h; siRNA: siScr
# mIMCD3 [3] = experiment: robust z score of cilia incidence (% cells with single cilium) vs plate controls; higher = more ciliated cells (rescue of cilia loss); details: 10 µM; 48 h; siRNA: siRpgrip1l
SMILES,robust z score of cell number (mIMCD3 [1]; siRNA: siRpgrip1l),robust z score of cell number (mIMCD3 [1]; siRNA: siScr),robust z score of cilia incidence (mIMCD3 [2]),robust z score of cilia incidence (mIMCD3 [3])
COc1cccc(OC)c1OCCNCC1COc2ccccc2O1 (stereo not drawn) [WB 4101 hydrochloride],-13.1 ± 1.6,-10.1 ± 7.4,-21.6 ± 7.1,-20.5 ± 3.8
C=C[C@@]1(C)CC(=O)[C@]2(O)[C@@]3(C)[C@@H](O)CCC(C)(C)[C@@H]3[C@H](O)[C@H](OC(C)=O)[C@@]2(C)O1 [Forskolin],-22.9 ± 16,-8.86 ± 1.6,-2.36 ± 0.92,-13.4 ± 1.2
CCc1ccc2c(-c3cccc(Cl)c3)nc(=O)n(CC)c2n1,-0.894 ± 2,-4.24 ± 0.84,-10.1 ± 1.6,-34.6 ± 22
COc1cc2ncnc(Nc3ccc(F)c(Cl)c3)c2cc1OCCCN1CCOCC1 [Iressa],-31.5 ± 30,-14.4 ± 13,-24.8 ± 24,-24.5 ± 9.2
CC(C)N1Cc2cc(S(C)(=O)=O)ccc2N(CCN2CC=C(c3c[nH]c4cc(F)ccc34)CC2)S1(=O)=O,-28.7 ± 34,-7.01 ± 4,-10.1 ± 1,-20.5 ± 17
CC(=O)NNC(=O)N1Cc2ccccc2Oc2ccc(Cl)cc21,-8 ± 3.9,-2.47 ± 0.41,0.175 ± 0.51,-15.6 ± 0.49
Cc1c(C(=O)NN2CCOCC2)nn(-c2ccc(Cl)cc2Cl)c1-c1ccc(I)cc1,-6.6 ± 0.96,-0.737 ± 2.5,-0.579 ± 0.48,-18.8 ± 0.96
COc1cc([C@@H]2c3cc4c(cc3[C@@H](O[C@@H]3O[C@@H]5CO[C@@H](C)O[C@H]5[C@H](O)[C@H]3O)[C@H]3COC(=O)[C@H]23)OCO4)cc(OC)c1O [Etoposide],-283 ± 200,-37.9 ± 8.9,-24 ± 6.7,-20.5 ± 5.5
COc1ccc(-c2nc(-c3ccc(-c4cccc(Cl)c4)o3)[nH]c2-c2ccc(OC)cc2)cc1 [Neurodazine],-50.1 ± 53,-27.4 ± 24,-4.27,-18.8 ± 14
CNCCC(Oc1ccccc1OC)c1ccccc1 (stereo not drawn) [Nisoxetine hydrochloride],-4.3 ± 1.7,-5.47 ± 0.44,-6.32 ± 3.8,-9.98 ± 1.6
Cc1ccc(NC(=O)c2cccc(N(C)C)c2)cc1NC(=O)c1ccc(O)cc1,-50.5 ± 10,2.52 ± 3.5,-2.07 ± 3.1,-22.2 ± 8.3
CC(C)(CO)Cc1cc(C(C)(C)C)c(O)c(C(C)(C)C)c1,8.36 ± 27,-0.631 ± 8.9,-1.98 ± 0.032,-209 ± 92
N[C@H](C(=O)O)c1cc(O)cc(O)c1,-2.05 ± 3.8,-1.76 ± 1.2,1.26 ± 1.6,-5.18 ± 1.6
CCCCNc1c(C(=O)OCC)c(C)nc2c1cnn2CC [Tracazolate hydrochloride],-28.1 ± 27,-2.77 ± 2.7,-3.9 ± 2,-249 ± 150
CCN(CC)CCCCN1c2ccccc2Oc2ccc(Cl)cc21 [10-DEBC hydrochloride],-32.5 ± 10,-143 ± 110,-67 ± 12,-58.4 ± 8.4
COC(=O)c1c(-c2cc(OC)c(OC)c(OC)c2)c2ccnc(OCc3ncccn3)c2c(=O)n1Cc1ccnc(C)c1 [T 0156 hydrochloride],-8.14 ± 4.5,-10.8 ± 0.85,-17.9 ± 18,-18.9 ± 3.1

SMILES,robust z score of cell number (mIMCD3 [1]; siRNA: siRpgrip1l),robust z score of cell number (mIMCD3 [1]; siRNA: siScr),robust z score of cilia incidence (mIMCD3 [2]),robust z score of cilia incidence (mIMCD3 [3])
Cc1sc(N)c(C(=O)c2cccc(C(F)(F)F)c2)c1C,-102 ± 85,-10.8 ± 0.35,1.76 ± 6.8,-15.4 ± 5.1
OC(CN1CCN(c2cccc(Cl)c2)CC1)C(c1ccccc1)c1ccccc1 (stereo not drawn),-51.9 ± 39,-21.6 ± 4.1,-2.25 ± 2.2,-14.1 ± 0.52
CSc1nc(NC2CCCC2)c([N+](=O)[O-])c(NC2CCCC2)n1,-19.4 ± 15,-33.9 ± 23,-1.57 ± 4.7,-19.1 ± 22
CC1(C)Oc2ccc(C#N)cc2[C@H](N2CCCC2=O)[C@H]1O [Cromakalim],-28.4 ± 32,-21.6 ± 32,-6.03 ± 7.6,-5.63 ± 0.76
O=C(O)CC/C=C\C[C@H]1CO[C@@H](c2ccccc2Cl)O[C@H]1c1ccccc1O,-2.96 ± 0.54,-5.59 ± 0.46,0.473 ± 0.67,-3.98 ± 2.9
COc1cc(N)c(Cl)cc1C(=O)OCCCN1CCCCC1,-0.243 ± 1.8,-1.69 ± 1.5,-2.86 ± 2.5,-7.89 ± 1.2
Oc1cc2c(c(Cl)c1O)CCNCC2c1ccccc1 (stereo not drawn),-37.1 ± 41,-6.48 ± 3.9,2.21 ± 1.6,-82.6 ± 77
c1ccc2sc(N3CCN(Cc4ccc5c(c4)OCO5)CC3)nc2c1 [2-[1-(4-Piperonyl)piperazinyl]benzothiazole],-2.78 ± 0.11,-2.25 ± 3.4,5.01 ± 0.51,-5.2 ± 4.9
Cc1ccc2c(c1)c1c3n2CCNC3CCC1 (stereo not drawn) [Pirlindole mesylate],-14.9 ± 6.8,-8.34 ± 0.4,-10.7 ± 3,-17.9 ± 1.1
N[C@H](C(=O)O)c1ccc(C(=O)O)c(O)c1 [(S)-4-Carboxy-3-hydroxyphenylglycine],6.84 ± 14,2.67 ± 2.3,2.13 ± 1.3,-7.23 ± 8.1
Cc1cc(/C(=C/Nc2ccc(Cl)cc2)C(=O)Nc2ccc(Cl)cc2)on1,-27 ± 21,-26.3 ± 6.1,-18.3 ± 8.8,-19.6 ± 6.5
Nc1nc2ccc(Cl)cc2c2nc(-c3ccco3)nn12,-9.72 ± 5.7,-11.1 ± 1.8,-5 ± 10,-8.53 ± 10
O=[N+]([O-])c1cccc2c(Br)[nH]nc12 [3-Bromo-7-nitroindazole],-2.52 ± 1.4,-1.37 ± 1.8,3.5 ± 0.64,-4.22 ± 1.4
CN(CCOc1ccc(-c2ccc3c(c2)OCO3)cc1C(C)(C)C)CC(=O)O,-19.3 ± 21,-5.2 ± 0.31,-6.72 ± 11,-11.9 ± 5.8
CC[C@H](C)C(=O)O[C@H]1CCC=C2C=C[C@H](C)[C@H](CC[C@@H]3C[C@@H](O)CC(=O)O3)[C@H]21 [Mevastatin],-126 ± 140,-38.2 ± 11,-37.9 ± 17,-510 ± 320
COc1ccc(S(=O)(=O)N2c3ccc(Cl)cc3[C@](O)(c3ccccc3Cl)[C@@H]2C(=O)N2CCC[C@H]2C(N)=O)cc1OC,-6.01 ± 1.1,-0.36 ± 6.5,1.05 ± 0.67,-9.22 ± 6.1

# Reprinted from the results shown (2 entries):
SMILES,robust z score of cell number (mIMCD3 [1]; siRNA: siRpgrip1l),robust z score of cell number (mIMCD3 [1]; siRNA: siScr),robust z score of cilia incidence (mIMCD3 [2]),robust z score of cilia incidence (mIMCD3 [3])
Oc1cc2c(c(Cl)c1O)CCNCC2c1ccccc1 (stereo not drawn),-37.1 ± 41,-6.48 ± 3.9,2.21 ± 1.6,-82.6 ± 77
c1ccc2sc(N3CCN(Cc4ccc5c(c4)OCO5)CC3)nc2c1 [2-[1-(4-Piperonyl)piperazinyl]benzothiazole],-2.78 ± 0.11,-2.25 ± 3.4,5.01 ± 0.51,-5.2 ± 4.9
